In PubChem BioAssay AID1347423 (Functional Genomics Laboratory (NCATS/FGL), 2020) one finds z-score data, which are given here for 105 sequences.

The whole screen tested about 52,000 sequences, of which about 210 (0.4%) were called active.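 Rule for the calls: active = gene whose silencing raises cell survival under the drug, median off-target-corrected z-score across its silencing RNAs 2 or more; inactive = the rest.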 The list shows a part of the results.

The assay in a line: Resistance to Poly (ADP-Ribose) Polymerase inhibitor: Gene Identification via Genome-wide siRNA Screen. The following applies: mouse BRCA2 R2336H ES cells, olaparib, CellTiter-Glo viability; active compounds read high. Summed up: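 Mouse BRCA2 R2336H ES cells were reverse-transfected with siRNA (20 nM final), treated at 48 h with 500 nM olaparib, and read by CellTiter-Glo after 72 h. Scores: MAD-based z per siRNA, median per gene, seed off-target correction.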
Take GGCAAAGCUGGUGAAAUACTT against Ksr: the z-score was inactive: -0.214. In the case of GGAAUUGGAUUCAGUUUACTT against Ppp3ca it was inactive: 1.12; in that of GGAAAUCAAGAAAGCACAGTT against Guk1, inactive: -0.0782. In the case of GGCAGUCAAAUUUAUAGUATT against Ckap4 it was inactive: -0.24. The result for “GCGCAAUGCCAAGGUGUACTT against A930005I04Rik” reads inactive: 2.42. Take GGGUUCAAAAGCCCAUAUUTT against MGC107702: the z-score is inactive: 2.49.

In the case of GGCAAUAUCCGGUUUUUAGTT against Sema6d, the z-score is inactive: 0.603. Turning to GCUCAGACAAGAAUUGCUATT against Specc1, the z-score was inactive: -0.587. The result for “CCAACAUGCUCUAUCUUUUTT against 5330437I02Rik” reads inactive: -0.428; that for GCGAGUGAAAAACCAAGGCTT against Loxl1, inactive: -2.54. For GGAAGACAGCAUGUGGACATT against Ghrh, the z-score was inactive: -0.896. Turning to GGCAUUAUUAAAAGUGUGATT against Psmd9, the z-score is inactive: 0.239. In the case of GGAAGCCUUUUGAUGACGCTT against Gsta3, the z-score is inactive: -0.0564.

As to GGCAUGAUGCUGAUCAUUCTT against Olfr1100, the z-score was inactive: -0.701.

Take UAAUAUCUGGCACUUUAUGTT against Ctxn: the z-score is inactive: -0.124. With GGUAAUUGAGCUGAGUUCUTT against Srisnf2l, the z-score is inactive: -0.648. On to “GGUACGGUGUUUUGGAUACTT against 2310044D20Rik”, for which the z-score is inactive: 0.047. The result for GCUCUGUUGGAAAGGUUUATT against Exosc6 reads inactive: -0.686; that for CCUUGUUAUUAGGAACUCUTT against Xpo7, inactive: 0.906. In the case of GGACAAGCAAUAACUCUACTT against Mapkapk2 it was inactive: -0.948. In the case of GGUAGUGAAGUUCUCCUACTT against Spop, the z-score is inactive: -0.41. In the case of “GGACCUAAGUGUGAAAUACTT against 2810408E11Rik” it was inactive: -0.0518; in that of GGAGAAAGACAAGGAAAAUTT against Clk3, inactive: 0.99; in that of “CCUCAUUCAGUAUGUCGCATT against 2410024A21Rik”, inactive: -0.708. In the case of CCCAUCAAUAUCAUAUCCATT against Car7 it was inactive: -1.16. The result for GCUGUUGGUUGAGCCUGAATT against Ager reads inactive: -1.12; that for GGGAUGAUGCCAAAUAUAUTT against Kl, inactive: -0.156. Consider GCUGUCUAAUGUCAAUUCUTT against Txnrd1, for which the z-score is inactive: -0.521.

Regarding GGAAUUAGACAUUCGAACATT against Rnf20, the z-score is inactive: 1.25. In the case of “GCCUCUCCUAUGUUCAGAGTT against 1700060H10Rik” it was inactive: -0.564; in that of CGUGUACGUCAUGGUAUUUTT against Map2k1, inactive: -1.19; in that of “GGAUACUCUCGAACUCGAUTT against 9230104L09Rik”, inactive: 0.474. The result for GCAGCAUGUUCGUCUUUGGTT against Lztr1 reads inactive: 0.19. The result for GGAUUGUUCGAGCUAAAAATT against Tnfsf10 reads inactive: 0.57; that for CCUAACACCAGUUGUGUUUTT against Pbx2, inactive: 0.9. As for GGAGUUGCUUAUCUAUGAATT against Cpsf1, the z-score is inactive: -1.71. In the case of “CCUAGUCACAAAUUCAGGATT against 2810030E01Rik”, the z-score was inactive: -0.262. In the case of CCUAUGUGCGUUCCAAGCATT against Eif5b it was inactive: -1.86. Turning to “GGCAUGAGCUAUCAGGACUTT against 4931407K02Rik”, the z-score was inactive: -0.292. In the case of GGAAAUACGAAAAGUUGUATT against Tsn it was inactive: 0.551; in that of GGCCACGUUUCUCUUCACCTT against Nyx, inactive: 2.67. With GGCCACUAGUAAGAAGAAATT against Usp19, the z-score was inactive: 0.463.

As for “GCAUCAAAUAGUGGUACCUTT against 2700023B17Rik”, the z-score was inactive: -0.325. In the case of CGUAAAACUCUUAGGCAUGTT against Npm1 it was active: 2.54; in that of GGAAUUCAAGGAUCGAUCUTT against Tnfrsf19, inactive: -1.48; in that of GCCAAGAAGUCGGUGGACATT against Cebpa, inactive: -0.624. Consider CCUGCUCUUCCGAUGCUCATT against Chkb, for which the z-score is inactive: 1.97. On to GGUCACGACUCUUCAUGAUTT against Nrl, for which the z-score is inactive: -0.0461. On to “GGACUGGUUCUUCAGAUCCTT against 8430408G22Rik”, for which the z-score was inactive: -0.942. In the case of GGCCAUGUGGUUCCUGCUUTT against Scnn1b it was inactive: 1.87; in that of “CGACUGCAUUCAAACUACUTT against 2900010M23Rik”, inactive: -1.03; in that of CGUUCCGAAGCAACAUCGUTT against Slc9a4, inactive: 0.176. The result for GGAAAAAGCGGAAAUUCAGTT against Pgbd5 reads inactive: 1.11; that for GGAAAUAAGAGAGAGUACATT against Pcbp2, inactive: 0.477; that for GGUUUCACCAGCCAAUGUCTT against Ltk, inactive: 0.769. As for GGGUCAAAAGAUAUUUGUCTT against Pitpn, the z-score is inactive: 1.39. In the case of GGACGUAUCCAUCACUGUUTT against Scn3b it was inactive: 0.269.

For the sequence GGUUCAAAUGGUCAAAUUCTT against Pcdha10, the z-score was inactive: 0.257. In the case of CGUAAUUAAUCAACAGCCATT against Siat8b it was inactive: 1.45.

As for GUUACACAGGAGUGUGUAATT against Ear11, the z-score is inactive: -0.405. As for CCAAGAUCGAUCAUUUUGGTT against Gm527, the z-score was inactive: 0.539. The result for GCCUAUAAGGAAUAACAAGTT against Cerkl reads inactive: -0.969. For GGAGCUCAACAAAGACCUGTT against BC023823, the z-score was inactive: 0.241.

On to GGCUUCUUCUAUAACCCAATT against Hist1h1a, for which the z-score is inactive: 0.507. In the case of GGUGGAUCACAGGUUCAUGTT against Rhced it was inactive: 0.401; in that of CGCCACACACCAUCACAUUTT against Scap, inactive: -1.97; in that of GCUGGACAUAUGGUCCAAATT against Crsp8, inactive: -0.291. In the case of GGAAGAAUCGGAUCAAGAUTT against Dpep2 it was inactive: 2.16; in that of “GGAAUGCUGAAGAAUUUUGTT against D630042P16Rik”, inactive: 1.14. In the case of GGAGAUAGGAUUGCUUGCATT against Fthfsdc1 it was inactive: -1.56; in that of GCAGAAAAAUCCUCUUACATT against Sp6, inactive: 0.569.

In the case of GUCUUGACAUUAGUACUCATT against Olfr1408, the z-score was inactive: 0.217. The result for GGUCAAAUUCUUUGACCUATT against Tesk2 reads inactive: 1.44; that for “CCUAGACAAUACUUGCCUGTT against E130016I23Rik”, inactive: -1.89; that for GGUCAAAGUUUGAUGUUAGTT against Tll2, inactive: -1.04. In the case of GGCAAGAGCAUCCUUACAGTT against Fah it was inactive: 0.717; in that of CGAGAUUGUGCUGAUAGAGTT against Nptx2, inactive: 0.175; in that of CCAGCAAUAAUGAAAAGACTT against Samd8, inactive: -0.473.

Turning to GCACCAUGAAUGGAGAUGATT against Mrpplf4, the z-score is inactive: 0.197. The result for “ACUCAGUAGUUAAUGUGGGTT against E130113K08Rik” reads inactive: 0.513.

Take GGUACUGGAGAAAGUCAAGTT against Pik4cb: the z-score was inactive: 0.097. The result for CGGGAACAUAUCAGACUAATT against Mcm3ap reads inactive: -0.752. In the case of GCCUUCGGAAAACGAGAAATT against Atpi, the z-score was inactive: -0.698. In the case of GGACCUUAAUUGCAUCAUUTT against Mapk3 it was inactive: 0.829. The result for GGAUUCUGUAGGUCUUCCUTT against Defb19 reads inactive: 0.354. The result for “CGUAACUUUGUUGAACUACTT against A630050E13Rik” reads inactive: 2.16. As for GGUACAUUUCAACCACAUUTT against Lnx1, the z-score was inactive: 0.338. As to CCUCAUGCUAGCCUCAUGATT against Actg, the z-score was inactive: -2.74.

Consider GGAACAGAAUACAAAAAAGTT against Syap1, for which the z-score is inactive: 0.398. The result for GCUGAAAUAGUUGCUAAAUTT against Usp6nl reads inactive: 2.64; that for GCUACGACUCGGAUGAUACTT against Doc2a, inactive: -1.27; that for GGGAAGGAUGUGCUUAUGATT against Rab38, inactive: 0.123.

As for “GGCCUAAGGACAAUUAUUUTT against 9130022A01Rik”, the z-score is inactive: 0.222. In the case of GGAGCAUGCUGGUCUUAGUTT against Bmp10 it was inactive: -0.453; in that of GGGUAUGCAAAAAUGGUUGTT against Csnk2a2, inactive: 1.55. For the sequence GGGUCACACUUCAUGGCUUTT against Pofut1, the z-score was inactive: -2.1. In the case of “GGGAUUUGCUUCAACCUGGTT against 2810021O14Rik” it was inactive: -0.218.

As for CCCGGAACUUAACUCUGUATT against LOC381438, the z-score is inactive: -0.264. In the case of “GGACAUGGCUUUAUAACCUTT against 4732421G10Rik” it was inactive: -0.411.

Consider GGAUGUAUAGGUUCAGCUGTT against Dph2l2, for which the z-score was inactive: 1.29. The result for GGAGGAACACAAGAUUUUCTT against Ppp2r5c reads inactive: 0.463; that for GGUAAAGAUGAAAAUGUGUTT against Fut9, inactive: -0.027; that for GGUUCAACACGAUGUUCGATT against Nr1i2, inactive: 0.927. As for CCUUCAACACCAGUUUGGGTT against Olfr1393, the z-score is inactive: -0.27. In the case of GAGAAAGAUAAUUACCUGGTT against Tnfrsf22 it was inactive: 1.28.
